The record followed here is article PMC7862700.

Only a part is listed here, and it is no random draw. At the low end of the ranking, values are background and their order means little.

The assay has as its target SPI1 (UniProt P17947). Nature of the assay: DAPPL (digital affinity profiling via proximity ligation, sequencing). The settings on record: 10 mM Tris-HCl pH 7.5, 50 mM NaCl, 1 mM DTT, 4% glycerol, room temperature, 30 min; GST-TFs on glutathione beads, 16-mer random dsDNA library, 0.1% …; high values mean tight binding; double strand, one strand shown; scale: fold enrichment (6-mer frequency, TF over GST control).
Consider AGATAC, for which the binding signal is 0.875.

In turn, CGTGGG returned a binding signal of 0.362. GTGAGA registered a binding signal of 0.343. With ACGGGC the figure was 0.74. As for GGTGAA, the binding signal worked out at 0.741.

Turning to AGGTAG, the binding signal was found to be 0.586. On to CCAAGG, for which the binding signal worked out at 0.93. CGCATC yielded a binding signal of 0.909. In the case of CGGACA, the binding signal amounted to 0.735. Consider TGTGAA, for which the binding signal came to 0.878. Take TAGCCA: the binding signal stood at 0.93.

With GAGCAG, the binding signal was 0.539. In turn, CAGGTG returned a binding signal of 0.519.

With GGTGAG, the binding signal amounted to 0.357. Consider TGGAGG, for which the binding signal was 0.502. Turning to ACCCAG, the binding signal stood at 0.698. GGGACC: the binding signal amounted to 0.689. In turn, GAGGAA showed a binding signal of 1.64. The result for AAGACC reads 0.844. With CGGTAC the figure was 0.874; with GGTACC, 0.848. With CGTGTC, the binding signal is 0.792. In turn, ACTGAG had a binding signal of 0.792.

CAGGCA yielded a binding signal of 0.689.

CAGTTA yielded a binding signal of 0.722. Regarding GGGAGA, the binding signal was 0.336. In turn, AGTGGG registered a binding signal of 0.817.

With TAGAGT, the binding signal worked out at 0.699. Regarding GCAGGG, the binding signal is 0.681. Regarding CGGACT, the binding signal was determined as 0.806. GACCAG gave a binding signal of 0.571.

As for GCGTGA, the binding signal was 0.255.

For AGTCAA, the binding signal came out at 0.699. On to GACTGT, for which the binding signal stood at 0.413. AGTAGA returned a binding signal of 0.844. AGGTGG displayed a binding signal of 0.638.

Sequence GTAGAC gave a binding signal of 0.757.

With GTCAAG, the binding signal was 0.786.

AAAGAG displayed a binding signal of 1.45. The result for CGCGGG reads 0.759.
